# The other results are listed elsewhere or left out.
# Key:
# Assay in all cases: glycan array binding signal (z-score within array); higher = stronger binding
# Conditions in all cases: glycan notation: IUPAC condensed, linker removed
# [1] = biological target: Gal(b1-4)GalNAc(b1-3)[Fuc(a1-2)]Gal(b1-4)GlcNAc
# Outline: (§1)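 Glycan array data came from 3228 arrays in the Consortium for Functional Glycomics database, and only arrays with an available protein sequence were kept. Glycan names were put into IUPAC-condensed notation, and columns mapping to the same glycan were averaged. The binding signal is a within-array Z-score, averaged across arrays of one protein sequence run at different concentrations or buffers and across linkers. A negative Z-score can be read as non-binding.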
# [2] = biological target: Gal(b1-4)Glc
# Outline: as §1
# [3] = biological target: Gal(b1-4)Glc6S
# Outline: as §1
# [4] = biological target: Gal(b1-4)GlcNAc
# Outline: as §1
# [5] = biological target: Gal(b1-4)GlcNAc(a1-6)Gal(b1-4)GlcNAc
# Outline: as §1
# [6] = biological target: Gal(b1-4)GlcNAc(b1-2)Man
# Outline: as §1
# [7] = biological target: Gal(b1-4)GlcNAc(b1-2)Man(a1-3)Man(b1-4)GlcNAc(b1-4)GlcNAc
# Outline: as §1
# [8] = biological target: Gal(b1-4)GlcNAc(b1-2)Man(a1-3)[Gal(b1-4)GlcNAc(b1-2)Man(a1-6)]Man(b1-4)GlcNAc(b1-4)GlcNAc
# Outline: as §1
# [9] = biological target: Gal(b1-4)GlcNAc(b1-2)Man(a1-3)[Gal(b1-4)GlcNAc(b1-2)Man(a1-6)]Man(b1-4)GlcNAc(b1-4)[Fuc(a1-6)]GlcNAc
# Outline: as §1
# [10] = biological target: Gal(b1-4)GlcNAc(b1-2)Man(a1-3)[Gal(b1-4)GlcNAc(b1-2)Man(a1-6)][Gal(b1-4)GlcNAc(b1-4)]Man(b1-4)GlcNAc(b1-4)[Fuc(a1-6)]GlcNAc
# Outline: as §1
# [11] = biological target: Gal(b1-4)GlcNAc(b1-2)Man(a1-3)[Gal(b1-4)GlcNAc(b1-2)Man(a1-6)][GlcNAc(b1-4)]Man(b1-4)GlcNAc(b1-4)[Fuc(a1-6)]GlcNAc
# Outline: as §1
# [12] = biological target: Gal(b1-4)GlcNAc(b1-2)Man(a1-3)[GlcNAc(b1-2)Man(a1-6)]Man(b1-4)GlcNAc(b1-4)GlcNAc
# Outline: as §1
# [13] = biological target: Gal(b1-4)GlcNAc(b1-2)Man(a1-3)[GlcNAc(b1-4)][Gal(b1-4)GlcNAc(b1-2)Man(a1-6)]Man(b1-4)GlcNAc(b1-4)GlcNAc
# Outline: as §1
# [14] = biological target: Gal(b1-4)GlcNAc(b1-2)Man(a1-3)[Man(a1-6)]Man(b1-4)GlcNAc(b1-4)GlcNAc
# Outline: as §1
# [15] = biological target: Gal(b1-4)GlcNAc(b1-2)Man(a1-6)Man(b1-4)GlcNAc(b1-4)GlcNAc
# Outline: as §1
# [16] = biological target: Gal(b1-4)GlcNAc(b1-2)Man(a1-6)[GlcNAc(b1-2)Man(a1-3)]Man(b1-4)GlcNAc(b1-4)GlcNAc
# Outline: as §1
# [17] = biological target: Gal(b1-4)GlcNAc(b1-2)Man(a1-6)[Man(a1-3)]Man(b1-4)GlcNAc(b1-4)GlcNAc
# Outline: as §1
# [18] = biological target: Gal(b1-4)GlcNAc(b1-2)[Gal(b1-4)GlcNAc(b1-4)]Man(a1-3)[Gal(b1-4)GlcNAc(b1-2)Man(a1-6)]Man(b1-4)GlcNAc(b1-4)GlcNAc
# Outline: as §1
# [19] = biological target: Gal(b1-4)GlcNAc(b1-2)[Gal(b1-4)GlcNAc(b1-4)]Man(a1-3)[Gal(b1-4)GlcNAc(b1-2)[Gal(b1-4)GlcNAc(b1-6)]Man(a1-6)]Man(b1-4)GlcNAc(b1-4)GlcNAc
# Outline: as §1
# [20] = biological target: Gal(b1-4)GlcNAc(b1-2)[Gal(b1-4)GlcNAc(b1-4)]Man(a1-3)[GlcNAc(b1-4)][Gal(b1-4)GlcNAc(b1-2)Man(a1-6)]Man(b1-4)GlcNAc(b1-4)GlcNAc
# Outline: as §1
# [21] = biological target: Gal(b1-4)GlcNAc(b1-2)[Gal(b1-4)GlcNAc(b1-4)]Man(a1-3)[GlcNAc(b1-4)][Gal(b1-4)GlcNAc(b1-2)[Gal(b1-4)GlcNAc(b1-6)]Man(a1-6)]Man(b1-4)GlcNAc(b1-4)GlcNAc
# Outline: as §1
# [22] = biological target: Gal(b1-4)GlcNAc(b1-2)[Gal(b1-4)GlcNAc(b1-6)]Man(a1-6)[Gal(b1-4)GlcNAc(b1-2)Man(a1-3)]Man(b1-4)GlcNAc(b1-4)GlcNAc
# Outline: as §1
# [23] = biological target: Gal(b1-4)GlcNAc(b1-2)[Gal(b1-4)GlcNAc(b1-6)]Man(a1-6)[Gal(b1-4)GlcNAc(b1-2)Man(a1-3)]Man(b1-4)GlcNAc(b1-4)[Fuc(a1-6)]GlcNAc
# Outline: as §1
# [24] = biological target: Gal(b1-4)GlcNAc(b1-2)[Gal(b1-4)GlcNAc(b1-6)]Man(a1-6)[GlcNAc(b1-4)][Gal(b1-4)GlcNAc(b1-2)Man(a1-3)]Man(b1-4)GlcNAc(b1-4)GlcNAc
# Outline: as §1
# [25] = biological target: Gal(b1-4)GlcNAc(b1-2)[Gal(b1-4)GlcNAc(b1-6)]Man(a1-6)[GlcNAc(b1-4)][Gal(b1-4)GlcNAc(b1-2)[Gal(b1-4)GlcNAc(b1-4)]Man(a1-3)]Man(b1-4)GlcNAc(b1-4)[Fuc(a1-6)]GlcNAc
# Outline: as §1
# [26] = biological target: Gal(b1-4)GlcNAc(b1-3)Gal(b1-3)GalNAc
# Outline: as §1
# [27] = biological target: Gal(b1-4)GlcNAc(b1-3)Gal(b1-3)GlcNAc
# Outline: as §1
# [28] = biological target: Gal(b1-4)GlcNAc(b1-3)Gal(b1-4)Glc
# Outline: as §1
# [29] = biological target: Gal(b1-4)GlcNAc(b1-3)Gal(b1-4)GlcNAc
# Outline: as §1
# [30] = biological target: Gal(b1-4)GlcNAc(b1-3)Gal(b1-4)GlcNAc(b1-2)Man(a1-3)[Gal(b1-4)GlcNAc(b1-3)Gal(b1-4)GlcNAc(b1-2)Man(a1-6)]Man(b1-4)GlcNAc(b1-4)GlcNAc
# Outline: as §1
# [31] = biological target: Gal(b1-4)GlcNAc(b1-3)Gal(b1-4)GlcNAc(b1-2)Man(a1-3)[Gal(b1-4)GlcNAc(b1-3)Gal(b1-4)GlcNAc(b1-2)Man(a1-6)]Man(b1-4)GlcNAc(b1-4)[Fuc(a1-6)]GlcNAc
# Outline: as §1
# [32] = biological target: Gal(b1-4)GlcNAc(b1-3)Gal(b1-4)GlcNAc(b1-2)[Gal(b1-4)GlcNAc(b1-3)Gal(b1-4)GlcNAc(b1-6)]Man(a1-6)[Gal(b1-4)GlcNAc(b1-3)Gal(b1-4)GlcNAc(b1-2)Man(a1-3)]Man(b1-4)GlcNAc(b1-4)GlcNAc
# Outline: as §1
# [33] = biological target: Gal(b1-4)GlcNAc(b1-3)Gal(b1-4)GlcNAc(b1-2)[Gal(b1-4)GlcNAc(b1-3)Gal(b1-4)GlcNAc(b1-6)]Man(a1-6)[Gal(b1-4)GlcNAc(b1-3)Gal(b1-4)GlcNAc(b1-2)Man(a1-3)]Man(b1-4)GlcNAc(b1-4)[Fuc(a1-6)]GlcNAc
# Outline: as §1
# [34] = biological target: Gal(b1-4)GlcNAc(b1-3)Gal(b1-4)GlcNAc(b1-3)Gal(b1-4)GlcNAc
# Outline: as §1
# [35] = biological target: Gal(b1-4)GlcNAc(b1-3)Gal(b1-4)GlcNAc(b1-3)Gal(b1-4)GlcNAc(b1-2)Man(a1-3)[Gal(b1-4)GlcNAc(b1-3)Gal(b1-4)GlcNAc(b1-3)Gal(b1-4)GlcNAc(b1-2)Man(a1-6)]Man(b1-4)GlcNAc(b1-4)GlcNAc
# Outline: as §1
# [36] = biological target: Gal(b1-4)GlcNAc(b1-3)Gal(b1-4)GlcNAc(b1-3)Gal(b1-4)GlcNAc(b1-2)Man(a1-3)[Gal(b1-4)GlcNAc(b1-3)Gal(b1-4)GlcNAc(b1-3)Gal(b1-4)GlcNAc(b1-2)Man(a1-6)]Man(b1-4)GlcNAc(b1-4)[Fuc(a1-6)]GlcNAc
# Outline: as §1
# [37] = biological target: Gal(b1-4)GlcNAc(b1-3)Gal(b1-4)GlcNAc(b1-3)Gal(b1-4)GlcNAc(b1-2)[Gal(b1-4)GlcNAc(b1-3)Gal(b1-4)GlcNAc(b1-3)Gal(b1-4)GlcNAc(b1-6)]Man(a1-6)[Gal(b1-4)GlcNAc(b1-3)Gal(b1-4)GlcNAc(b1-3)Gal(b1-4)GlcNAc(b1-2)Man(a1-3)]Man(b1-4)GlcNAc(b1-4)[Fuc(a1-6)]GlcNAc
# Outline: as §1
binder,measurement,setting,value
"Erv46-EDTA (Saccharomyces cerevisiae), P39727 (protein) MKFLVNVALVFMVVYISYIYAAAPEHHHHHHDYDIPTTENLYFQGAMDSVVTRPQLVVDRDRHAKLELNMDVTFPSMPCDLVNLDIMDDSGEMQLDILDAGFTMSRLNSEGRPVGDATELHVGGNGDGTAPVNNDPNYCGPCYGAKDQSQNENLAQEEKVCCQDCDAVRSAYLEAGWAFFDGKNIEQCEREGYVSKINEHLNEGCRIKGSAQINRIQGNLHFAPGKPYQNAYGHFHDTSLYDKTSNLNFNHIINHLSFGKPIQSHSKLLGNDKRHGGAVVATSPLDGRQVFPDRNTHFHQFSYFAKIVPTRYEYLDNVVIETAQFSATFHSRPLAGGRDKDHPNTLHVRGGIPGMFVFFEMSPLKVINKEQ",glycan array binding signal (z-score),[1],0.1
same,glycan array binding signal (z-score),[2],0.02
same,glycan array binding signal (z-score),[3],-0.225
same,glycan array binding signal (z-score),[4],-0.332
same,glycan array binding signal (z-score),[5],-0.275
same,glycan array binding signal (z-score),[6],0.412
same,glycan array binding signal (z-score),[7],-0.633
same,glycan array binding signal (z-score),[8],-0.253
same,glycan array binding signal (z-score),[9],-0.444
same,glycan array binding signal (z-score),[10],-0.498
same,glycan array binding signal (z-score),[11],-0.491
same,glycan array binding signal (z-score),[12],0.376
same,glycan array binding signal (z-score),[13],-1.06
same,glycan array binding signal (z-score),[14],-0.25
same,glycan array binding signal (z-score),[15],-0.354
same,glycan array binding signal (z-score),[16],-0.581
same,glycan array binding signal (z-score),[17],-0.001
same,glycan array binding signal (z-score),[18],-0.584
same,glycan array binding signal (z-score),[19],-1.16
same,glycan array binding signal (z-score),[20],-0.206
same,glycan array binding signal (z-score),[21],0.184
same,glycan array binding signal (z-score),[22],-0.306
same,glycan array binding signal (z-score),[23],0.123
same,glycan array binding signal (z-score),[24],0.319
same,glycan array binding signal (z-score),[25],-0.066
same,glycan array binding signal (z-score),[26],-0.17
same,glycan array binding signal (z-score),[27],-0.539
same,glycan array binding signal (z-score),[28],-0.525
same,glycan array binding signal (z-score),[29],-0.513
same,glycan array binding signal (z-score),[30],4.93
same,glycan array binding signal (z-score),[31],1.81
same,glycan array binding signal (z-score),[32],2.71
same,glycan array binding signal (z-score),[33],2.65
same,glycan array binding signal (z-score),[34],0.66
same,glycan array binding signal (z-score),[35],3.36
same,glycan array binding signal (z-score),[36],0.623
same,glycan array binding signal (z-score),[37],0.628

# 2 entries from above, as tab-separated lines:
binder	measurement	setting	value
Erv46-EDTA (Saccharomyces cerevisiae), P39727 (protein) MKFLVNVALVFMVVYISYIYAAAPEHHHHHHDYDIPTTENLYFQGAMDSVVTRPQLVVDRDRHAKLELNMDVTFPSMPCDLVNLDIMDDSGEMQLDILDAGFTMSRLNSEGRPVGDATELHVGGNGDGTAPVNNDPNYCGPCYGAKDQSQNENLAQEEKVCCQDCDAVRSAYLEAGWAFFDGKNIEQCEREGYVSKINEHLNEGCRIKGSAQINRIQGNLHFAPGKPYQNAYGHFHDTSLYDKTSNLNFNHIINHLSFGKPIQSHSKLLGNDKRHGGAVVATSPLDGRQVFPDRNTHFHQFSYFAKIVPTRYEYLDNVVIETAQFSATFHSRPLAGGRDKDHPNTLHVRGGIPGMFVFFEMSPLKVINKEQ	glycan array binding signal (z-score)	[15]	-0.354
same	glycan array binding signal (z-score)	[26]	-0.17
